# In the supplement of paper PMC12823440, “Inhibitors supercharge kinase turnover through native proteolytic circuits” (Nature, 2025):
# The chains behind the UniProt entries cited, without tags or fusion partners. Where a name states a change or a piece, a line headed by the entry shows the natural chain unless it says otherwise.
# UniProt P48729: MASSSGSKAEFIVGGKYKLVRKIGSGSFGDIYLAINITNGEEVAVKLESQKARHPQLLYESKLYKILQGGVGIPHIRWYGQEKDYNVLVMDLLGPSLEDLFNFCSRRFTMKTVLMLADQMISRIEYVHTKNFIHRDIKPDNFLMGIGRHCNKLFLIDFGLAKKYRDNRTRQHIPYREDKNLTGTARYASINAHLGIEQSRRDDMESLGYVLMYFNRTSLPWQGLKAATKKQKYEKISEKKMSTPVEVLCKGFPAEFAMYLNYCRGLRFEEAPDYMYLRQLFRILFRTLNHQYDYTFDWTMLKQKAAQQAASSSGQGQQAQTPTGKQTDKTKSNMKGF
# UniProt P48730: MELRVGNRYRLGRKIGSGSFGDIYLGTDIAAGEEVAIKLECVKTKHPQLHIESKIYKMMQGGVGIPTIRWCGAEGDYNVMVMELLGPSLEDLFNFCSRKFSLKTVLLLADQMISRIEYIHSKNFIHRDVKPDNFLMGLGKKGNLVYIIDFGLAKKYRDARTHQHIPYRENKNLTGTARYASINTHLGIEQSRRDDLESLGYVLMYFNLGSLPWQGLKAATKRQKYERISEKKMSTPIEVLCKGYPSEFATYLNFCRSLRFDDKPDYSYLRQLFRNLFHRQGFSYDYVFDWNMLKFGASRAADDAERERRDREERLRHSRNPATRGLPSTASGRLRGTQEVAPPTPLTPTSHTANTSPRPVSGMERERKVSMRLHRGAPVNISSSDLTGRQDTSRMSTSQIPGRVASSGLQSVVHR
# UniProt Q08345: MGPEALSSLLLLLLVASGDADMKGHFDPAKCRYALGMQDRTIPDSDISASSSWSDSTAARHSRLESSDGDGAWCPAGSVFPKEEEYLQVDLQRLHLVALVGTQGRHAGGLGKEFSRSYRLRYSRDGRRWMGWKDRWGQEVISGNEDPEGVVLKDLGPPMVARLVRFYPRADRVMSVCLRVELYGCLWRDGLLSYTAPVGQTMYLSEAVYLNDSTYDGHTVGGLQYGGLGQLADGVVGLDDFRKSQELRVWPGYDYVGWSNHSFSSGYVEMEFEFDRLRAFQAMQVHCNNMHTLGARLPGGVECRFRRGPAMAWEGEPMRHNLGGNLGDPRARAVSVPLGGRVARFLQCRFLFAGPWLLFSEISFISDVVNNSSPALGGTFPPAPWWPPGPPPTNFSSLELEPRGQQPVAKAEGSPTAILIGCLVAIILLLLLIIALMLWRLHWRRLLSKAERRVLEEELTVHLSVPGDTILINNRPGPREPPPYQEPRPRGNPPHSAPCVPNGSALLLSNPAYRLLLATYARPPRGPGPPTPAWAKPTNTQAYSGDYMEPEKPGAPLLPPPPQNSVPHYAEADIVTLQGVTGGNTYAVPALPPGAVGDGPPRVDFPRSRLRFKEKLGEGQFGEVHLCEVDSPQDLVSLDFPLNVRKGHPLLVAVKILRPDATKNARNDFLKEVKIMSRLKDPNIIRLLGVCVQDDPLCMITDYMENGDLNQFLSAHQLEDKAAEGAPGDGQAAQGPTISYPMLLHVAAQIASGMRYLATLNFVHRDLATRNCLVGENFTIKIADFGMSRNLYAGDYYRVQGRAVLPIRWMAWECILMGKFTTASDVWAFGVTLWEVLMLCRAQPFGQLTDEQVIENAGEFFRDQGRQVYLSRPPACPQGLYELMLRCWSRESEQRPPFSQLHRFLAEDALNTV
# UniProt Q9Y463, whole entry, looked up: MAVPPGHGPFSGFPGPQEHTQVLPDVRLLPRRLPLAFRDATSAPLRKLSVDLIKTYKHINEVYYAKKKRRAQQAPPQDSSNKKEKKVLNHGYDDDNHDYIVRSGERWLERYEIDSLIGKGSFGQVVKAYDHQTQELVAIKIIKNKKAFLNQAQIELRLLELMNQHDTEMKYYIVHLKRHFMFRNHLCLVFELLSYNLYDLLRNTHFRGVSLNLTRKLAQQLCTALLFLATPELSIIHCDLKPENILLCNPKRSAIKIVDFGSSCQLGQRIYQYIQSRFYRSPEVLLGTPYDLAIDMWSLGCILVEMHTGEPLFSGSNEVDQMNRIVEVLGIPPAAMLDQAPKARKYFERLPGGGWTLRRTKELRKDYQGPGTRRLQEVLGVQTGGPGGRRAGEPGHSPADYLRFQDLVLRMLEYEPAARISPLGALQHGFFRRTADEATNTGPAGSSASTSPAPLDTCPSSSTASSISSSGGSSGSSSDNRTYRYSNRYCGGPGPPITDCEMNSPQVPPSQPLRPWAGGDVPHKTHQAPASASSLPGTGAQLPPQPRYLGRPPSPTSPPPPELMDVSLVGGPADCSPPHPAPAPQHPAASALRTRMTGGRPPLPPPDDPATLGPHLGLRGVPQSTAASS
# UniProt Q92630: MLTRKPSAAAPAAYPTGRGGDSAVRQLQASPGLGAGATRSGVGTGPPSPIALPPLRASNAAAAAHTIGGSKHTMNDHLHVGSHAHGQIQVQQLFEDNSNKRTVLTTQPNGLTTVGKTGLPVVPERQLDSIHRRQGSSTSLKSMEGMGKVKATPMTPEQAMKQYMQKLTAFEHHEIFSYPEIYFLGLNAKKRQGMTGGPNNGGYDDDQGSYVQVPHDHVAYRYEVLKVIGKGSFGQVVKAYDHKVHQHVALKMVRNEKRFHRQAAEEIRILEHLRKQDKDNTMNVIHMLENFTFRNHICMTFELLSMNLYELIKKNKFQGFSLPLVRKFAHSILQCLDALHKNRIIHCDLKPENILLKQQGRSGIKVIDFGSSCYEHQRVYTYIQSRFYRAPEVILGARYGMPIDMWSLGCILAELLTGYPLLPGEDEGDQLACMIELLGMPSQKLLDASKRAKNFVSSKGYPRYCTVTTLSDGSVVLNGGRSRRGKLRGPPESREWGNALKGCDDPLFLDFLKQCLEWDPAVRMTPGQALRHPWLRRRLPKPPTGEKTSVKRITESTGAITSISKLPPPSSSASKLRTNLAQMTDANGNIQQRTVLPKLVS
# Where a name gives a salt, the structure may show the parent alone. This is one part of the list. The calls rarely recur for the same compound in another form.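 Kinases were expressed as nanoluciferase fusions in K562 cells and luminescence was read every 4 h between 2 and 18 h as percent of control, DMSO set to 100% and a positive control to 0%. A time point counts as decreased when the signal drops significantly (2 sigma). The hit call is the authors' own, does not follow from the count of time points alone, and its rule is not shown.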
# Legend:
# Test in all cases: number of time points (of 5) at which kinase-Nluc abundance scored as decreased, DMSO-normalised (count); higher = more persistent destabilization
# Settings in all cases: K562; 2-18 h
# CSNK1A1 = CSNK1A1 (UniProt P48729)
# CSNK1D = CSNK1D (UniProt P48730)
# DDR1 = DDR1 (UniProt Q08345)
# DYRK1B = DYRK1B (UniProt Q9Y463)
# DYRK2 = DYRK2 (UniProt Q92630)
# EGFR = EGFR (UniProt P00533)
# EGFR_G719S = EGFR_G719S (UniProt P00533)
# EGFR_G719S_T790M = EGFR_G719S_T790M (UniProt P00533)
# EGFR_L718V = EGFR_L718V (UniProt P00533)
# EGFR_L858R = EGFR_L858R (UniProt P00533)
Structure (SMILES),number of time points (CSNK1A1),number of time points (CSNK1D),number of time points (DDR1),number of time points (DYRK1B),number of time points (DYRK2),number of time points (EGFR),number of time points (EGFR_G719S),number of time points (EGFR_G719S_T790M),number of time points (EGFR_L718V),number of time points (EGFR_L858R)
C=CC(=O)Nc1cc(C)ccc1Nc1nc(Nc2cc(OC)ncc2C)ncc1C(F)(F)F (10 µM),0,0,0,0,0,0,0,0,0,0
CCN1CCN(Cc2ccc(Nc3ncc(F)c(-c4cc(F)c5nc(C)n(C(C)C)c5c4)n3)nc2)CC1 [Abemaciclib (methanesulfonate)] (10 µM),0,0,0,0,2,0,0,3,0,0
COc1cc2nccc(Oc3ccc(NC(=O)NC4CC4)c(Cl)c3)c2cc1C(N)=O [Lenvatinib (mesylate)] (10 µM),3,0,0,1,4,1,0,1,0,2
CCN1CCN(Cc2ccc(-c3cc4c(N[C@H](C)c5ccccc5)ncnc4[nH]3)cc2)CC1 (2.5 µM),3,2,3,0,3,0,1,0,1,0
CS(=O)(=O)Nc1cc(-c2ccc3ncnc(Nc4ccc(F)c(Cl)c4)c3c2)cnc1Cl (2.5 µM),2,0,0,0,4,0,2,0,0,0
CNC(=O)c1ccc(C)c(-n2c(C)cc(OCc3ccc(F)cc3F)c(Br)c2=O)c1 (10 µM),0,0,0,0,0,0,0,0,0,0
CN1CCC(c2cc(-c3ccncc3)c(-c3ccc(F)cc3)[nH]2)CC1 (10 µM),0,0,0,0,0,0,0,0,0,0
C=C1C(=O)O[C@H]2C[C@H](C)C(/C=C/C(C)=O)=CC[C@H]12 [Xanthatin] (2.5 µM),0,0,0,0,0,0,0,0,0,0
S=C(SSC(=S)N1CCOCC1)N1CCOCC1 (10 µM),0,0,2,0,0,0,0,1,0,0
O=S(=O)(NCCCN1c2ccccc2CCc2ccc(Cl)cc21)c1ccc(OC(F)(F)F)cc1 (2.5 µM),0,0,0,0,0,0,0,0,0,0
CN1C(=O)N[C@H](Cc2c[nH]c3c(Cl)cccc23)C1=O [Necrostatin 2] (10 µM),0,0,0,0,0,0,0,0,0,0
C=CC(=O)Nc1ccc(CN2C(=O)N(c3cc(OC)cc(OC)c3)Cc3cnc(Nc4ccc(N5CCN(C)CC5)cc4)nc32)cc1 (2.5 µM),0,0,0,0,0,0,0,0,0,0
CN(C)C(=O)Cn1cc(-c2ccc(-c3cncc4ccccc34)cc2)cn1 (10 µM),0,0,0,0,0,0,0,0,0,0
CC[C@@H](Oc1nc(Oc2cc(C)cc(-c3cccc(CN)c3)c2)c(F)cc1F)C(=O)O (10 µM),0,0,0,0,0,0,0,0,0,0
CC(C)(O)CNc1ncc(-c2ccnc(Nc3ccnc(Cl)c3)n2)c(CC2CC2)n1 (2.5 µM),0,0,0,0,1,0,0,0,0,0
Cc1ccc(OCCSc2ncccn2)c(Br)c1 [ZLN024 (hydrochloride)] (10 µM),0,0,0,0,0,0,0,0,0,0
CC#CC(=O)N1CC[C@@H](n2c(=O)n(-c3ccc(Oc4ccccc4)cc3)c3c(N)ncnc32)C1 [Tirabrutinib] (10 µM),0,0,0,0,0,0,0,0,0,0
Cc1cccc(-c2[nH]ncc2-c2ccc(F)c(-c3cnn(CCO)c3)c2)n1 (10 µM),0,0,0,0,0,0,0,0,0,0

Structure (SMILES),number of time points (CSNK1A1),number of time points (CSNK1D),number of time points (DDR1),number of time points (DYRK1B),number of time points (DYRK2),number of time points (EGFR),number of time points (EGFR_G719S),number of time points (EGFR_G719S_T790M),number of time points (EGFR_L718V),number of time points (EGFR_L858R)
Cn1cc(-c2cnn3c(N)c(Br)c([C@@H]4CCCNC4)nc23)cn1 (2.5 µM),0,0,0,0,0,0,0,2,1,1
Cc1cc(Nc2ncnc3ccc(NC4=NC(C)(C)CO4)cc23)ccc1Oc1ccn2ncnc2c1 [Tucatinib (hemiethanolate)] (2.5 µM),0,0,0,0,0,0,0,0,0,0
CCOc1ccc2cc(-c3nn(CC4CCN(C)CC4)c4ncnc(N)c34)ccc2n1 (10 µM),0,0,0,0,0,0,0,0,0,0
O=C(Nc1ccc(CN2CCOCC2)cc1)c1ccc(-c2cccc(Cl)c2)o1 (10 µM),0,0,0,0,0,0,0,0,0,0
O=c1cc(CN2CCOCC2)occ1OCCCCCSc1ccnc2cc(C(F)(F)F)ccc12 (10 µM),0,0,0,0,1,0,0,0,0,0
C[C@@H]1CC[C@@H](Nc2nc(NC(C)(C)C)ncc2C(N)=O)C[C@H]1O (10 µM),0,0,0,0,0,0,0,0,0,0
O=Nc1c(-c2c(O)[nH]c3ccc(F)cc23)[nH]c2ccccc12 [5'-Fluoroindirubinoxime] (10 µM),0,0,0,0,0,0,0,0,0,0
Cn1nccc1Nc1nccc(-c2ccn([C@H](CO)c3ccc(Cl)c(F)c3)c(=O)c2)n1 [Ravoxertinib] (10 µM),0,0,0,0,0,0,0,0,0,0
Nc1nc2ccc(Cl)cc2c2nc(-c3ccco3)nn12 (10 µM),0,0,0,0,0,0,0,0,0,0
C=CC(=O)Nc1cccc(Nc2nc(Nc3ccc(N4CCN(C(C)=O)CC4)cc3OC)ncc2C(F)(F)F)c1 [Rociletinib hydrobromide] (10 µM),0,0,0,0,0,0,0,0,0,0
Cn1ncc(Cl)c1-c1cc(C(=O)N[C@H](CN)Cc2ccc(F)c(F)c2)oc1Cl [Uprosertib] (10 µM),0,0,3,0,0,0,0,0,0,0
NC(=O)c1nc(Nc2ccccc2)sc1NC(=O)C1CCCCC1 (10 µM),0,0,0,0,0,0,0,0,0,0
CC1(C)C(O[C@@H]2OC[C@@H](O)[C@H](O)[C@H]2O)CC[C@]23CC24CC[C@]2(C)[C@@H]([C@@]5(C)CC[C@@H](C(C)(C)O)O5)[C@H](O)C[C@@]2(C)C4C[C@@H](O[C@@H]2O[C@H](CO)[C@@H](O)[C@H](O)[C@H]2O)C13 (stereo not given in full) [Astragaloside IV] (10 µM),0,0,0,0,0,0,0,0,0,0
c1cc(-c2c[nH]c3nccc(N4CCC[C@@]5(CCCCN5)C4)c23)ncn1 (10 µM),0,0,0,0,0,0,0,0,0,0
C[C@@H]1COCCN1c1cc(C2([S@@](C)(=N)=O)CC2)nc(-c2ccnc3[nH]ccc23)n1 [(S)-Ceralasertib] (10 µM),0,0,0,0,0,0,0,0,0,0
C[C@]1(O)CCN(c2nc(N3C[C@H](O)[C@@H](O)C3)cc(C(F)(F)F)c2C#N)C1 (10 µM),0,0,0,0,0,0,0,0,0,0
O=c1[nH]c(=O)n([C@@H]2O[C@H](CO)[C@@H](O)[C@@H]2O)cc1/C=C/Br [Sorivudine] (10 µM),0,0,0,0,0,0,1,0,0,0
Cc1cc(CN2CCN(c3c(Br)cnc4nc(-c5ccc(N6CCN(C)CC6)cc5)[nH]c34)CC2)no1 (2.5 µM),0,0,0,0,0,0,0,0,0,0

# Laid out differently: entries from further up.
Structure (SMILES)	number of time points (CSNK1A1)	number of time points (CSNK1D)	number of time points (DDR1)	number of time points (DYRK1B)	number of time points (DYRK2)	number of time points (EGFR)	number of time points (EGFR_G719S)	number of time points (EGFR_G719S_T790M)	number of time points (EGFR_L718V)	number of time points (EGFR_L858R)
Cn1cc(-c2cnn3c(N)c(Br)c([C@@H]4CCCNC4)nc23)cn1 (2.5 µM)	0	0	0	0	0	0	0	2	1	1
O=Nc1c(-c2c(O)[nH]c3ccc(F)cc23)[nH]c2ccccc12 [5'-Fluoroindirubinoxime] (10 µM)	0	0	0	0	0	0	0	0	0	0
